Tested on: PCP RECEPTOR
Test: PCP receptor binding assay ([3H]-TCP displacement, brain membranes)
Set-up: species or system guinea-pig (male Hartley)
Protocol: This example illustrates testing of compounds in receptor binding assays.
Frozen brains from male Hartley guinea-pigs were obtained from Pel-Freeze (Rogers, Arkansas).
The brains plus cerebella were homogenized in 10 volumes (v/w) of 0.1M, pH 7.4, ice-cold Tris-HCl buffer with a Brinkmann polytron at setting 4 for 20 seconds. The homogenates were centrifuged at 20,000×g for 20 minutes at 4° C. The pellets were suspended in 10 volumes of ice-cold water and, after sitting on ice for 10 minutes, were centrifuged 30 minutes at 20,000×g at 4° C. The resulting pellets were resuspended in the above Tris buffer in ratio 1:100 (w/v) for σ receptor assays or in 5 mM Tris-HCl having pH 7.4, for PCP receptor assays. The final suspension was homogenized with a dounce glass-glass tissue grinder Wheaton "200", at small clearance (B), with three strokes before use. Two milliter aliquots of the brain membrane preparation, containing 1.7 mg of protein, were incubated in quadruplicate for one hour at 23° C. with competing mixture of ligand and radioligand. For σ receptors, [^3 H]-d-SKF-10,047, 2 nM was used. For PCP receptors, [^3 H] TCP [^3 H]-1-[1-(2-thienyl)cyclohexyl]piperidine), 1 nM was used. The nonspecific bindings were defined by 0.1 mM d-SKF-10,047 and 0.1 mM phencyclidine respectively for σ and PCP receptors. After incubation, free ligand was separated from bound ligand by rapid filtration through Whatman GF/C filters. The filters had been soaked before use in isoamyl alcohol-saturated water to prevent nonspecific [^3 H]-d-SKF-10,047 binding to the filter. In the PCP receptor assay, the filter was soaked in 0.5% polyethylenimine to reduce the filter binding of [^3 H]-TCP. After filtration, the trapped tissue was washed three times with 4 ml aliquots of 0.1 M ice-cold Tris buffer at pH 7.4 for σ receptors and 5 mM, ice-cold Tris buffer pH 7.4 for PCP receptors. The filters were transferred to 5 ml of liquid scintillation fluid and the retained radioactivity was measured by liquid scintillation spectrometry.
Programs in Biomed. 17:107 (1983)].

[1] = Table 1, slope of dose response curve

SMILES	PCP RECEPTOR SLOPE (Table 2)	PCP RECEPTOR SLOPE [1]	PCP RECEPTOR SLOPE (Table 3)
Oc1cccc(C2(CN3CCCC3)CCCCC2)c1 [Compound 29]	0.79 ± 0.02	–	–
CN(C)C1(c2ccccc2)CCCCC1 [Compound 17, N,N-dimethyl-1-phenylcyclohexylamine, reference compound]	–	0.81 ± 0.01	–
c1ccc(C2(CCN3CCCC3)CCCCC2)cc1 [Compound 7]	–	0.71 ± 0.08	–
c1ccc(C2(CN3CCCCC3)CC2)cc1 [Compound 45]	–	–	0.83 ± 0.03
Clc1cccc(C2(CN3CCCC3)CCCCC2)c1 [Compound 32]	1.78 ± 0.09	–	–
c1ccc(C2(N3CCCC3)CCCCC2)cc1 [Compound 5, 1-(1-phenylcyclohexyl)pyrrolidine, reference compound]	–	0.84 ± 0.04	–
c1ccc(C2(CN3CCCC3)CCCCC2)cc1 [Compound 6]	0.85 ± 0.04	0.85 ± 0.04	–
COc1cccc(C2(CN3CCCC3)CCCCC2)c1 [Compound 33]	0.89 ± 0.08	–	–
c1ccc(C2(CN3CCCCC3)CCCCC2)cc1 [Compound 2]	0.84 ± 0.02	0.84 ± 0.02	0.84 ± 0.02
c1ccc(C2(N3CCOCC3)CCCCC2)cc1 [Compound 10, 4-(1-phenylcyclohexyl)morpholine, reference compound]	–	0.93 ± 0.03	–
CCN(CC)C1(c2ccccc2)CCCCC1 [Compound 13, N,N-diethyl-1-phenylcyclohexylamine, reference compound]	–	0.96 ± 0.01	–
Clc1cccc(C2(CN3CCCCC3)CCCCC2)c1 [Compound 25]	0.84 ± 0.05	–	–
c1ccc(C2(N3CCCCC3)CCCCC2)cc1 [Compound 1, 1-(1-phenylcylohexyl)piperidine, reference compound]	–	0.78 ± 0.02	–

From US5086054A, “Novel arylcycloalkanepolyalkylamines” (SRI International, priority 1990, dated 1992)
